Laboratory results published in the supplement of paper PMC12889115.
This is one part of the list. These are raw signals, not scaled to a control.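 In the initial screen, polymyxin B was used at a concentration that permeabilizes Salmonella's outer membrane but not its inner membrane. Maximum growth was set by DMSO wells with or without polymyxin B. Since plates varied, data were ranked per plate, and compounds giving the lowest OD600 advanced as hits.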

Tested on: Salmonella enterica serovar Typhimurium SL1344
Assay: bacterial growth OD600 after 18 h with compound and polymyxin B; higher = more bacterial growth (less inhibition)
Details: 50 µM, Mueller-Hinton broth

| Compound | bacterial growth OD600 (polymyxin B 1 µg/mL) | bacterial growth OD600 (polymyxin B 0.75 µg/mL) |
| --- | --- | --- |
| COc1ccc2cc(-c3n[nH]cc3CNC(C)c3cccs3)ccc2c1 (centres undefined) | 0.91 |  |
| O=C(NCc1ccccc1-n1cncn1)C1CCC(=O)N(C2CCCCCC2)C1 (centres undefined) | 0.964 |  |
| CCOC(=O)C1(Cc2ccc(F)cc2F)CCCN(C(=O)c2cccnc2SC)C1 (centres undefined) | 1.1 |  |
| CC(C)N1CC(C(=O)NCc2nc(NCc3cccc(C(F)(F)F)c3)c3ccccc3n2)CC1=O (centres undefined) |  | 0.008 |
| O=C(c1cc(F)c(F)cc1F)N1CCOc2ccc(CN3CCc4sccc4C3)cc2C1 |  | 0.003 |
| CCn1ncc(CN2CCN(Cc3cc(OC)cc(OC)c3)C(CCO)C2)c1C (centres undefined) | 0.914 |  |
| CN(Cc1cnc2ccccn12)C(=O)CCN1Cc2ccccc2OC(c2ccccc2F)C1 (centres undefined) |  | 0.012 |
| CCOC(=O)C1(CCCc2ccccc2)CCCN(C(=O)c2ccc(COC)o2)C1 (centres undefined) | 0.441 |  |
| O=C1CCC(CCNCc2cc3c(cc2Cl)OCO3)N1CC(c1cccnc1)N1CCOCC1 (centres undefined) |  | 0.806 |
| CN(CCN1CCCCC1)Cc1cnc(S(C)(=O)=O)n1CC1CCCO1 (centres undefined) |  | 0.859 |
| O[C@H]1CCN(c2ccc(-c3nc(COc4ccccc4)no3)cn2)C1 | 0.798 |  |
| c1ccc(Cn2cc(CN3CCOCC3)c(-c3cc4ccccc4o3)n2)cc1 | 0.369 |  |
| CC(C)(C)C(=O)NC1CC(=O)N(CCc2cccc(Cl)c2)C1 (centres undefined) | 0.82 |  |
| COc1cccc(CC(C2CCN(C(=O)c3csc(C)n3)CC2)N(C)C(=O)c2ccsc2)c1 (centres undefined) |  | 0.888 |
| COC(=O)c1c(OCC2CCCCO2)cc(=O)n2c1CCN(C(=O)COc1ccc(C)cc1)CC2 (centres undefined) |  | 0.814 |
| COCCn1c(CN2CCCC(C)C2)cnc1S(=O)(=O)C1CCCCCC1 (centres undefined) | 0.013 |  |
| CC1CCN(Cc2nnnn2CC(=O)N2CCCC(C(=O)c3ccccn3)C2)CC1 (centres undefined) | 0.917 |  |
| COc1cccc(NC(=O)CCC2CCN(C(=O)[C@@H]3C[C@H]3c3ccccc3)CC2)c1 | 0.695 |  |
| O=C1O[C@@H]2CN(C3CCOCC3)C[C@@H]2N1CCCc1ccc(F)cc1 | 1.25 |  |

Molecules shown so far containing a carbonyl joined to an NH by a bond outside any ring, in the order listed:

| Compound | bacterial growth OD600 (polymyxin B 1 µg/mL) | bacterial growth OD600 (polymyxin B 0.75 µg/mL) |
| --- | --- | --- |
| O=C(NCc1ccccc1-n1cncn1)C1CCC(=O)N(C2CCCCCC2)C1 (centres undefined) | 0.964 |  |
| CC(C)N1CC(C(=O)NCc2nc(NCc3cccc(C(F)(F)F)c3)c3ccccc3n2)CC1=O (centres undefined) |  | 0.008 |
| CC(C)(C)C(=O)NC1CC(=O)N(CCc2cccc(Cl)c2)C1 (centres undefined) | 0.82 |  |
| COc1cccc(NC(=O)CCC2CCN(C(=O)[C@@H]3C[C@H]3c3ccccc3)CC2)c1 | 0.695 |  |
